PubChem BioAssay AID504848 (National Center for Advancing Translational Sciences (NCATS), 2011)
Screen size: about 2,300 compounds; about 1,400 (61%) were called active. So high a share suggests a set chosen from earlier hits. The inconclusive results got no clear call from the source; some entries with a clear call stand among them for comparison. Calls follow the shape of the dose curve; as a rule, active = well fitted inhibition curve with a large enough effect; inconclusive = small, poorly fitted or top-dose-only effect, or effect the other way; inactive = no such curve, though single readings can be large or run the other way. Where the call is inconclusive, the potency comes from a doubtful curve fit.

test: Confirmation screen for delayed death inhibitors of the malarial parasite plastid, 96 hour incubation; also: nearly all actives have a fitted effect of over 60% in size; settings: P. falciparum luciferase growth in erythrocytes; series mostly up to 28.7 µM
How it was run: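 Two-generation (96 h, 37 C) exposure of P. falciparum carrying an integrated firefly luciferase reporter in erythrocytes, 0.1% parasitemia and 2% hematocrit final, Albumax-supplemented RPMI. Luminescence decrease measures growth inhibition.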
Potency is read from the fitted curve at half-maximal effect.

SMILES	Potency
COc1cc(OC)c2c(-c3cccc(-c4cccc(N)c4)c3)cc(=O)oc2c1	active: 10 µM
COc1cccc(C(=O)NC(C)c2cccc3ccccc23)c1OC (centres undefined)	inconclusive: 12.6 µM [inhibitor, partial curve, poor fit]
O=C(CSc1nc2ccccc2n1-c1ccccc1)Nc1ncc(Cl)cc1Cl	active: 10 µM
Cc1ccc(NC(=O)CN2C(=O)S/C(=C\c3ccccn3)C2=O)cc1C	inactive
CCCN(Cc1ccccc1)C(=O)Nc1ccc2c(c1)nnn2C	inconclusive: 20 µM [inhibitor, single point]
Cc1ccc(Nc2cc(C)c3ccc(O)cc3n2)cc1C	active: 0.126 µM
Nc1ccc(Cc2nc3cc4ccccc4cc3[nH]2)cc1	inconclusive: 3.98 µM [activator, partial curve]
Cc1ccccc1Cn1nc(C)c(NC(=O)c2noc3c2CCCC3)c1C	inconclusive: 12.6 µM [inhibitor, partial curve, poor fit]
Cc1sc2nc(C3CC3)nc(SCC(=O)N3c4ccccc4CC3C)c2c1C (centres undefined)	inconclusive: 11.2 µM [inhibitor, partial curve, poor fit]
O=C(NCc1cccc(Cl)c1)C1CCC(=O)N(CC2CCCCC2)C1 (centres undefined)	inconclusive: 11.2 µM [inhibitor, partial curve, poor fit]
CC(=O)c1cc(NC(=O)c2cccc(C(F)(F)F)c2)c(=O)oc1C	inconclusive: 14.1 µM [inhibitor, single point]
O=C(NNC(=S)Nc1ccccc1Cl)c1ccccc1Cl	inconclusive: 3.16 µM [activator, full curve]
Cc1ccc(C)c(S(=O)(=O)N2CCN(C(=O)/C=C/c3ccco3)CC2)c1	inconclusive: 14.1 µM [inhibitor, partial curve, poor fit]
CCCN(CC1CC1)C(=S)NC(=O)c1cc(Br)ccc1Cl	inconclusive: 12.6 µM [inhibitor, single point]
COc1ccc(CCC(C)N2CCC(Oc3ccc(C(=O)N4CCCC4)cc3)CC2)cc1 (centres undefined)	active: 10 µM
Cc1ccc(-n2c(SCC(=O)Nc3cccc(S(N)(=O)=O)c3)nc3ccccc32)cc1	inconclusive: 12.6 µM [inhibitor, single point]
Cc1ccc(NC(=O)COc2ccccc2C#N)cc1S(=O)(=O)N1CCCCCC1	active: 12.6 µM
COc1cc(C(C)=O)ccc1OCC(O)CN1CCN(c2ccc(C)c(C)c2)CC1 (centres undefined)	inconclusive: 15.8 µM [inhibitor, single point]
O=C(N/N=C/c1cccc(O)c1)c1cc(-c2ccccc2)nc2ccccc12	inconclusive: 14.1 µM [inhibitor, single point]
COCCN(Cc1nc2ccccc2c(=O)[nH]1)C(=O)COc1ccccc1-c1ccccc1	inconclusive: 12.6 µM [inhibitor, partial curve, poor fit]
Cc1cc(F)ccc1S(=O)(=O)Nc1ccccc1C(=O)Nc1ccccc1-c1nc2ccccc2[nH]1	active: 4.47 µM
CCOc1ccccc1NC(=O)C(CC)Sc1nc2ccsc2c(=O)n1CCC(=O)O (centres undefined)	inconclusive: 14.1 µM [inhibitor, partial curve, poor fit]

SMILES	Potency
CN1CCN(C(=O)c2cc(COc3c(F)cccc3F)on2)CC1c1ccccc1 (centres undefined)	inactive
COc1cc2c(cc1OC)CN(C(=O)COc1ccccc1C#N)CC2	inactive
CCn1c2ccccc2c2cc(Nc3cc(C)nc4ncnn34)ccc21	inconclusive: 0.158 µM [inhibitor, full curve, poor fit]
Fc1ccc(C2CC(c3ccco3)=NN2c2ccccc2)cc1 (centres undefined)	inconclusive: 22.4 µM [inhibitor, single point]
CC(=O)Nc1ccc(S(=O)(=O)N2CCn3cccc3C2C)cc1 (centres undefined)	inconclusive: 22.4 µM [inhibitor, single point]
Cn1c(C(=O)NCc2ccccc2)cc2oc3ccccc3c21	inconclusive: 22.4 µM [inhibitor, single point]
CCOC(=O)C[n+]1c(C)ccc2c1CCC2	active: 12.6 µM
S=c1[nH]nc(-c2ccccc2)n1/N=C/c1ccc(-c2ccccc2Cl)o1	inactive
Cc1c(Cl)cccc1NC(CC(=O)c1ccccc1)C(=O)O (centres undefined)	inconclusive: 0.891 µM [activator, partial curve]
COc1ccc(N2CC(O)=C(c3nc4ccccc4s3)C2=N)cc1	inconclusive: 7.94 µM [inhibitor, partial curve, poor fit]
O=C(NC(=C(Cl)Cl)S(=O)(=O)c1ccc(Cl)cc1)c1ccccc1	inactive
C/C(N)=C(/C#N)C(=O)COC(=O)c1cc(C)n(-c2ccc(F)cc2)c1C	inconclusive: 3.55 µM [inhibitor, full curve, poor fit]
COc1cccc(CNc2ccc3c(c2)ncn3C(C)C)c1OC	inconclusive: 15.8 µM [inhibitor, single point]
Cc1ccc2c(c1)N(CCC(=O)NCc1ccco1)C(=O)CO2	inactive
Fc1ccccc1N1CCN(c2ncnc3[nH]ncc23)CC1	inactive
Cc1onc(-c2ccccc2Cl)c1C(=O)N1CC(C)CC(C)C1 (centres undefined)	inconclusive: 14.1 µM [inhibitor, partial curve, poor fit]
Cc1cccc(C)c1OCc1cc(C(=O)N2CCN(c3ccccc3)CC2C)no1 (centres undefined)	inconclusive: 17.8 µM [inhibitor, partial curve, poor fit]
O=C(NC1CCC1)C1CCC(=O)N(Cc2ccccc2F)C1 (centres undefined)	inactive
Cc1ccc(-c2nc(CSc3nc4ccccc4c(=O)n3CCO)cs2)cc1	inconclusive: 15.8 µM [inhibitor, partial curve, poor fit]
COc1ccc(NC(=O)c2cc([N+](=O)[O-])ccc2N2CCN(C)CC2)cc1	inconclusive: 12.6 µM [inhibitor, single point]
COc1cccc(/C=C/C(=O)c2ccc3c(c2)OCCO3)c1OC	inconclusive: 7.94 µM [activator, partial curve]
CC(CC(=O)Nc1nnc(CC(C)(C)C)s1)c1ccccc1 (centres undefined)	inconclusive: 20 µM [inhibitor, partial curve, poor fit]

Two records picked at random from those above:
SMILES	Potency
COc1ccc(NC(=O)c2cc([N+](=O)[O-])ccc2N2CCN(C)CC2)cc1	inconclusive: 12.6 µM [inhibitor, single point]
Cc1c(Cl)cccc1NC(CC(=O)c1ccccc1)C(=O)O (centres undefined)	inconclusive: 0.891 µM [activator, partial curve]
